Test results published in patent publication US20240369485A1, “FLUORESCENT SENSOR FOR MONITORING CALCIUM DYNAMICS” (priority 2021, published 2024).
Some results were stated once for a whole list of compounds, not compound by compound.

Assay: In vitro kinetics by stopped flow spectrofluorometer
Type: binding
Settings: dead time 2.2 ms, 20° C.
Experimental: In vitro kinetics by stopped flow spectrofluorometer. The kinetics were determined by a Hi-Tech SF-61 stopped-flow spectrofluorometer equipped with the mercury-Xe lamp (10 mm path length, dead time of 2.2 ms) at 20° C. For R-CatchER and its variant or R-CEPIA1er, excitation was at 569 nm and a long-pass 590 nm filter was used. For G-CEPIA1er, a 530 nm long-pass filter was set with excitation at 498 nm, while for MCD1, excitation at 587 nm and a long-pass 600 nm filter were applied. For association kinetics, R-CatchER, R-CatchER variant, MCD1, R-CEPIA1er, and G-CEPIA1er were mixed with the same buffer containing an increasing concentration of Ca^2+. For disassociation kinetics, R-CatchER, R-CatchER variant, MCD1, R-CEPIA1er, and G-CEPIA1er in buffers with concentration of Ca^2+ at Kd, were mixed with 5 mM EGTA or buffer. The raw data were fitted using either single exponential for R-CatchER, R-CatchER variant, and MCD1, or double exponential equations for R-CEPIA1er and G-CEPIA1er.

B1: MCD1: mCherry A145E/S147E/N196D/K198D/R216E, best mCherry-based variant, SEQ ID NO: 32 (protein)
chain: EEDNMAIIKEFMRFKVHMEGSVNGHEFEIEGEGEGRPYEGTQTAKLKVTKGGPLPFAWDILSPQFMYGSKAYVKHPADIPDYLKLSFPEGFKWERVMNFEDGGVVTVTQDSSLQDGEFIYKVKLRGTNFPSDGPVMQKKTMGWEESEERMYPEDGALKGEIKQRLKLKDGGHYDAEVKTTYKAKKPVQLPGAYNVDIDLDITSHNEDYTIVEQYEEAEGRHSTGGMDELYK
Ca^2+ dissociation rate koff: ≥ 2000 s⁻¹
